The text below walks through data of PMC2861598, “Ligand Binding and Crystal Structures of the Substrate-Binding Domain of the ABC Transporter OpuA” (PLoS ONE, 2010).

These are yes or no findings as the source states them, for the method shown.

In this assay the target is OpuAC, the substrate-binding domain (SBD) of the ABC transporter OpuA from Lactococcus lactis, produced as soluble protein (Lactococcus lactis) (UniProt Q9KIF6). The experiment in a line: SEC-MALS; 200 µl of OpuAC (0.2–0.4 mg/ml) on Superdex 200 10/300GL in 150 mM KPi pH 7.0, with or without 1 mM glycine betaine, room temperature; UV, refractive index and static light scattering detectors; both purified.

B1: OpuAC, the substrate-binding domain (SBD) of the ABC transporter OpuA from Lactococcus lactis, produced as soluble protein (domain or fragment, UniProt Q9KIF6 320-573)
chain: DKKVDLVYMNWDSEVASINVLTQAMKEHGFDVKTTALDNAVAWQTVANGQADGMVSAWLPNTHKTQWQKYGKSVDLLGPNLKGAKVGFVVPSYMNVNSIEDLTNQANKTITGIEPGAGVMAASEKTLNSYDNLKDWKLVPSSSGAMTVALGEAIKQHKDIVITGWSPHWMFNKYDLKYLADPKGTMGTSENINTIVRKGLKKENPEAYKVLDKFNWTTKDMEAVMLDIQNGKTPEEAAKNWIKDHQKEVDKWFK
In the case of B1, the binding entry is “no binding (tested: 0.2–0.4 mg/ml)”.
